Test results: the supplement of paper PMC5407854, “Inhibitor of ppGalNAc-T3-mediated O-glycosylation blocks cancer cell invasiveness and lowers FGF23 levels” (eLife, 2017)
Whole data set: some 1,700 compounds, median “T3 sensor activation Q score (MG/GFP ratio z-score vs DMSO controls)” near 0.25, cut for the highest 2% near 1.9. The list shows a part of the results.

tested on: ppGalNAc-T3 sensor; assay: T3 sensor activation Q score (MG/GFP ratio z-score vs DMSO controls) (SD units); higher = more sensor activation (inhibition of ppGalNAc-T3 glycosylation); conditions: HEK293 sensor cells; 10 µM; 6 h
Experimental: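 Cells were treated with compound at 10 uM for 6 h, then MG/GFP ratio was read by flow cytometry (10,000 cells per well, duplicate wells). Q = (R - R_neg)/SD_neg relative to DMSO vehicle controls; the signal rises when the glycosyltransferase is inhibited.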

In order of rising “T3 sensor activation Q score” value:
1. CNc1ncnc2c1cnn2C1CCCCO1 (centres undefined)  -2.65
2. O=C(Nc1cccc([N+](=O)[O-])c1)c1ccc2ccccc2c1O  -1.9
3. O=C(Nc1ccc(Oc2ccc(NC(=O)Nc3ccccc3Cl)cc2)cc1)Nc1ccccc1Cl  -1.75
4. c1cc2c3c(cccc3c1)NC1(CCC3(CC1)Nc1cccc4cccc(c14)N3)N2  -1.75
5. CC(C=CC1(O)C(C)=CC(=O)CC1(C)C)=CC(=O)O (centres undefined)  -1.75
6. Nc1nc(=S)c2ncn(C3CCCC3)c2[nH]1  -1.55
7. NC(=O)c1ccccc1NC(=O)c1ccccc1Cl  -1.5
8. O=C(CC1C=Cc2ccccc2N1C(=O)c1ccccc1)c1ccccc1 (centres undefined)  -1.4
9. CC1(C)N=C(N)N=C(N)N1c1ccc(OCCCOc2ccccc2)c(Cl)c1  -1.35
10. CC12CCC(C(NC(=S)NN)C1=O)C2(C)C (centres undefined)  -1.35
11. c1ccc2c(c1)nnn2-c1ccncc1  -1.2
12. CN(C)c1ccc(/C=C(\C#N)C(=O)c2ccccc2)cc1  -1.15
13. Oc1[nH]c(N=C2N=c3ccccc3=N2)c2ccccc12  -1.15
14. C[C@]12CC[C@@H]3c4ccc(O)cc4C[C@@H](CCCCCCCCC[S+]([O-])CCCC(F)(F)C(F)(F)F)[C@H]3[C@@H]1CC[C@@H]2O (some centres undefined)  -1.15
15. COC(=O)c1ccccc1NCCO  -1.1
16. OC(c1cc(-c2ccc(Cl)cc2)nc2ccccc12)C1CCCCN1 (centres undefined)  -1.1
17. CNC(=O)c1ccc(N2C(=S)N(c3ccc(C#N)c(C(F)(F)F)c3)C(=O)C2(C)C)cc1F  -1.1
18. Cc1cc(=O)n2[nH]c(-c3ccc(C(C)(C)C)cc3)cc2n1  -1.05
19. c1ccc(-n2c3ccccc3c3ccccc32)cc1  -1
20. O=[N+]([O-])c1cc([N+](=O)[O-])c2cccnc2c1O  -1
21. COc1cc([N+](=O)[O-])ccc1NC(=O)Oc1ccc(NC(C)=O)cc1  -0.9
22. COC1CC(C)C(OC)c2cc(O)cc(c2O)NC(=O)/C(C)=C/C=C\C(C)C(OC(N)=O)/C(C)=C/C(C)C1OC (centres undefined)  -0.85
23. Cc1cc(=O)[nH]c(N)n1  -0.8
24. c1ccc(N=NN2CCOCC2)cc1  -0.75
25. O=C(c1ccccc1)c1ccc[nH]1  -0.75
26. O=C(Nc1ccc(Cl)cc1)c1cc2c(cc1O)[nH]c1ccccc12  -0.75
27. COc1ccc([N+](=O)[O-])cc1NS(=O)(=O)c1ccc(C)cc1  -0.7
28. N#CN=CN1CC=C(c2ccc(Cl)cc2)CC1  -0.7
29. Cn1cnc([N+](=O)[O-])c1S(=O)(=O)Oc1cccc2ccccc12  -0.65
30. COc1ccc(Nc2cc(C)nc(N)n2)cc1  -0.6
31. CCOC(=O)c1ccc(Nc2sc(C(=O)c3cccc([N+](=O)[O-])c3)c(N)c2C#N)cc1  -0.6
32. COc1cc2c(cc1OC)C(C1(O)CCCCC1)NCC2 (centres undefined)  -0.55
33. Oc1ccc(Cc2ccccc2Cl)c(O)c1  -0.5
34. Cc1nnsc1C(=O)NCc1c(F)cccc1Cl  -0.4
35. CCc1nc(NC(C)(C)C)c2cnn(-c3ccccc3)c2n1  -0.4
36. O=C(NC(=S)Nc1ccccn1)c1ccccc1  -0.35
37. COc1ccc2c(n1)Sc1nc3ccccc3nc1N2  -0.35
38. CC(C)N(C(=O)c1cccc([N+](=O)[O-])c1)C(C)C  -0.3
39. CCc1cccc2[nH]c3cc([N+](=O)[O-])ccc3c12  -0.3
40. CCCCCn1cnc2c(=S)nc(N)[nH]c21  -0.25
41. CCOc1ccc2sc(NS(=O)(=O)c3ccc(N)cc3)nc2c1  -0.25
42. C=CCNC(=S)N1CCN(c2ccccc2Cl)CC1  -0.25
43. CC(C)n1cnc2c(=S)nc[nH]c21  -0.2
44. O=P(O)(O)c1cc(-c2ccccc2)oc1-c1ccccc1  -0.2
45. c1ccc(-c2nnc3oc(-c4cccs4)nn23)cc1  -0.2
46. CC1=CC(=C2C=CC(=O)C=C2)C=C(C)N1C  -0.15
47. Cc1nn(-c2ccccc2)c2c1C(c1ccc([N+](=O)[O-])cc1)C(C#N)=C(N)O2 (centres undefined)  -0.15
48. Cc1ccc(S(=O)(=O)Oc2cc(N)c3c(n2)CCC3)cc1  -0.15
49. Oc1c(CN2CCN(c3ccccc3)CC2)cc(Br)c2cccnc12  -0.15
50. Cc1nccnc1Sc1ccccc1  -0.1
51. Cc1cc2cc3n(c2nn1)N=C(Cl)CC3  -0.1
52. O=C(O)c1nn(-c2ccccc2-c2n[nH]c(=O)[nH]c2=O)c(=O)[nH]c1=O  -0.1
53. [O-][n+]1ccc(CC(O)(C(F)(F)F)C(F)(F)F)cc1  -0.1
54. CCCCNCC1CCCO1 (centres undefined)  -0.1
55. CC(=O)OCC1OC(COC(C)=O)(c2ccc(C)cc2)C(OC(C)=O)C1OC(C)=O (centres undefined)  -0.1
56. O=C(CCBr)N1CCN(C(=O)CCBr)CC1  -0.1
57. Cn1c(=S)c2[nH]c(SCCN3CCCC3)nc2n(C)c1=O  -0.05
58. Cc1ccc(-c2cssc2=S)cc1  0
59. S=C1SCN(CCc2ccccc2)CN1CCc1ccccc1  0
60. O=C(Nc1ccc(F)cc1)Oc1ccc[nH]c1=O  0
61. O=c1[nH]c(=S)c2[nH]c(=S)n(-c3ccccc3)c2[nH]1  0.05
62. O=S(=O)(Oc1ccc(Cl)cc1)c1cccc2cccnc12  0.05
63. Cc1ccc(-c2cc(C(F)(F)F)nn2-c2ccc(S(N)(=O)=O)cc2)cc1  0.05
64. NC1=C(O)C(=O)C(c2ccccc2)O1 (centres undefined)  0.05
65. CSC1=NC=C(C#N)C2=NC(c3ccc(Cl)cc3)NN12 (centres undefined)  0.1
66. CCC1=C(c2ccc(OC)cc2)CCC(C(=O)O)C1C (centres undefined)  0.1
67. CCN(c1ccccc1)c1nc(Cl)nc2c1cnn2C  0.1
68. O=P(O)(O)C(O)(Cn1ccnc1)P(=O)(O)O  0.1
69. CC(C)(C)c1ccc(OCC(=O)O)cc1  0.15
70. Nc1ncnc2c([C@@H]3O[C@H](CO)[C@@H](O)[C@H]3O)c[nH]c12  0.15
71. CN(c1cccnc1)c1ncnc2[nH]ncc12  0.2
72. C[C@@H]1C[C@H]2OC(=O)[C@@]3(C)CCC[C@@](C)([C@@H]23)[C@@]1(O)CCc1ccoc1  0.2
73. Nc1ncnc2c1ncn2C1OC(CO)C(O)C1N (centres undefined)  0.2
74. CC(C)COC(=O)NC1c2ccccc2Oc2ccccc21  0.2
75. CC(=O)Nc1ccc2cc3ccc(NC(C)=O)cc3nc2c1  0.2
76. S=c1nc[nH]c2c1cnn2-c1ccccc1  0.25
77. CCNc1nc(Cl)nc(-c2cn(-c3ccccc3)c3ccccc23)n1  0.25
78. Cc1nnc(-n2cccc2)s1  0.3
79. CC(=NNC(N)=O)c1ccc(Cl)c(-n2cccc2)c1  0.35
80. Clc1c(Cl)c(Cl)c2n[nH]nc2c1Cl  0.35
81. O=C1/C(=C\c2ccc([N+](=O)[O-])cc2)CCc2ccccc21  0.4
82. Cc1cnc2c(N)cc(C)c(C)c2c1  0.4
83. Oc1ccccc1-c1nnco1  0.4
84. C#CC1(N2CCCCC2)CCCCC1  0.4
85. O=C(C=Cc1ccccc1Cl)c1ccc(O)cc1  0.45
86. Cc1nc(NCc2ccccc2)c2cc[nH]c2n1  0.45
87. Cc1cc(O)c(C(C)C)cc1NC(=O)Nc1cccc2ccccc12  0.45
88. CCOP(=O)(OCC)/C(C#N)=C/c1ccc([N+](=O)[O-])cc1  0.45
89. Cc1cc(NC(=O)Nc2cc(F)ccc2F)no1  0.5
90. NCC(=O)Nc1ccc(Cl)cc1C(=O)c1ccc[nH]1  0.65
91. O=C(O)c1ccccc1C(=O)Nc1cccc([N+](=O)[O-])c1  0.65
92. COc1cc(C(=O)C(=O)c2cc(OC)c(O)c(OC)c2)cc(OC)c1O  0.7
93. Clc1ccccc1/C=C/c1ccnc2ccccc12  0.85
94. CN(C)S(=O)(=O)c1ccc(N)c([N+](=O)[O-])c1  0.85
95. Nc1ccccc1Sc1cc(Cl)nnc1Cl  0.85
96. COc1cccc2c1C(=O)c1c(O)c3c(c(O)c1C2=O)C[C@@](O)(C(C)=O)C[C@@H]3O[C@H]1C[C@H](N)[C@H](O)[C@H](C)O1  0.9
97. C#CCSc1nnnn1-c1ccc(Br)c(C)c1  0.9
98. Cc1ccc(Nc2nnc(-c3ccc4c(c3)OCO4)o2)c(C)c1  0.95
99. NCc1c(O)ccc2ccccc12  0.95
100. COc1cc2c(NCCCCCO)ncnc2c(OC)c1OC  1
101. COc1cc(Nc2c(C#N)cnc3cc(OCCCN4CCN(C)CC4)c(OC)cc23)c(Cl)cc1Cl  1
102. NC1=NC(c2ccc(Cl)cc2)N(c2ccc(S(N)(=O)=O)cc2)C(N)=N1 (centres undefined)  1.05
103. COc1ccc(C2=NC(=O)NC2c2ccc(OC)cc2)cc1 (centres undefined)  1.05
104. CC(C)=CCC1=C(OCC(=O)O)C(=O)c2ccccc2C1=O  1.1
105. CNC(=O)c1nn(C)c(=O)[nH]c1=O  1.1
106. Nc1ccc(C(=O)c2cccs2)cn1  1.15
107. O=C(CN1CCCC1)Nc1nc(-c2ccc(Cl)cc2)cs1  1.2
108. O=C1OCC/C1=C\NCCCCCCCCN/C=C1\CCOC1=O  1.2
109. S=c1[nH]c2ccccc2c2ccccc12  1.2
110. Oc1ccc2ccccc2c1N=Nc1ccc(F)cc1  1.3
111. CCC(C)(C)c1ccc(Oc2cccc(C(=O)O)c2)cc1  1.3
112. CCC(C)NC(=O)c1cccc(C)c1 (centres undefined)  1.35
113. Cc1ccc(Nc2nc(Cl)nc3ncn(C)c23)c(C)c1  1.35
114. CCCCOc1nc2c(c(=O)n(C)c(=O)n2C)n1C  1.35
115. O=C(O)C1C2OC3C(OC(=O)C31)C2Br (centres undefined)  1.4
116. Oc1c(Cl)cc(Cl)cc1C1Nc2ccccc2-n2cccc21 (centres undefined)  1.4
117. Cc1csc(N=Nc2ccc(N(C)C)cc2)[n+]1[O-]  1.45
118. Nc1ccc(N=Nc2ccc(O)cc2)c(N)n1  1.5
119. Cn1ncc2c(Nc3ccc(O)cc3)nc(Cl)nc21  1.6
120. Cn1c(N)c(C(=O)/C=C/c2ccccc2)c(=O)[nH]c1=O  1.7
121. N#CC(c1ccccc1)C(C/C(=N\O)c1ccccc1)c1ccccc1 (centres undefined)  1.8
122. Nc1ccc(C(=O)Nc2ccc(NC(=O)c3ccco3)c(O)c2)cc1  1.85
123. Cc1ccn(C)c(=N)c1  2
124. CC(=O)[C@@]1(O)[C@H](C)C[C@H]2[C@@H]3C=C(C)C4=Cc5c(cnn5-c5ccccc5)C[C@]4(C)[C@H]3[C@@H](O)C[C@@]21C  5
